In patent US9269550B2, “Mass spectrometric methods for quantifying NPY 1-36 and NPY 3-36” (Georgetown University, priority 2010, dated 2016):

Assay: Free NPY in human plasma of healthy normals by HPLC-QTOF-MS
Conditions: human plasma ultrafiltrate (free peptide), healthy normal subjects, preliminary data

NPY 1-36: 36-amino acid peptide neurotransmitter found in the brain and autonomic nervous system
values (reference intervals) for healthy normals: 0.23 to 0.67 ng/mL

NPY 3-36: 34-amino acid peptide fragment formed by dipeptidyl peptidase IV (DPPIV) cleavage of NPY 1-36
values (reference intervals) for healthy normals: 0.19 to 0.65 ng/mL
